Some entries share one result that the patent states for a list of compounds.
System: iPSC
Assay: CD34+ cell induction in Day 6 aggregates, Spin EB and modified Spin EB protocols
Assay type: cell-based, human
Details: conditions 3 to 10, followed by their inhibitors

## Cc1cnc(-c2cnc(NCCNc3ccc(C#N)cn3)nc2-c2ccc(Cl)cc2Cl)[nH]1 [CHIR-99021, 6-[[2-[[4-(2,4-Dichlorophenyl)-5-(5-methyl-1H-imidazol-2-yl)-2-pyrimidinyl]amino]ethyl]amino]-3-pyridinecarbonitrile]
  percentage of CD34+ cells compared to basic SpinEB protocol condition: 2-3 times
